Source: article PMC11297141
No constants are given. Whether binding was seen depends on the method and setting. In cells and extracts the contact can be indirect.

Amino acid sequences for entries named in this document (tags omitted). Residues count along the entry.
UniProt P05067, residues 672-713: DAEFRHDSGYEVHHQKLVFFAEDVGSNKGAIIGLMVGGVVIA
UniProt Q61851, residues 21-801: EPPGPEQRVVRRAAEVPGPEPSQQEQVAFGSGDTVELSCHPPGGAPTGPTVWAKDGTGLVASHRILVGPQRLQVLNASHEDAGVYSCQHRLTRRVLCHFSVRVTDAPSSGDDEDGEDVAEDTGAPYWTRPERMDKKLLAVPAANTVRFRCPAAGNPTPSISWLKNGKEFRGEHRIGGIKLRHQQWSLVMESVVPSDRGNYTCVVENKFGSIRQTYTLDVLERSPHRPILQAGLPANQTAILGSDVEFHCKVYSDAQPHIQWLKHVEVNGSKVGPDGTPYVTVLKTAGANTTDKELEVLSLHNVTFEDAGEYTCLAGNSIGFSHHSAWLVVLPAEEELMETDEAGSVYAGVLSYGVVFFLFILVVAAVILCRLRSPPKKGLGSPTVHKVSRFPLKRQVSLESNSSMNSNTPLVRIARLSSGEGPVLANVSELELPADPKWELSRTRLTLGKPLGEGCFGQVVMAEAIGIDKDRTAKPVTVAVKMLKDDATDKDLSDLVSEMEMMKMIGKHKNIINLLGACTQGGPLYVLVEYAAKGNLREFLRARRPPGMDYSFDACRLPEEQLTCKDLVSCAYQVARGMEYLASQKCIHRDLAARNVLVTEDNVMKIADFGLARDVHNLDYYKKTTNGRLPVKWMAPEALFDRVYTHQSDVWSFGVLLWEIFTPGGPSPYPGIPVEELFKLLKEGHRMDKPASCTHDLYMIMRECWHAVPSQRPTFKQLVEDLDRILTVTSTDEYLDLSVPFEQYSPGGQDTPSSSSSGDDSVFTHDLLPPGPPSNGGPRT

Biological target: Aβ1–42 peptide (UniProt P05067)
Test: co-IP; Aβ immunoprecipitated with an anti-Aβ(17-24) antibody from HT22 cells pretreated with Aβ; blot for FGFR3; only the target purified

- binding: no binding
Substance: fibroblast growth factor receptor 3 (FGFR3), endogenous in mouse neuronal cells (from UniProt Q61851 21-801)
